Laboratory results from PubChem BioAssay AID493014 (National Center for Advancing Translational Sciences (NCATS), 2011).
The other results are listed elsewhere or left out. Shown are side measurements of this screen, not its main read-out; they come without a call. Most of these compounds were active or inconclusive in the main read-out, so they are no random draw. The note in brackets gives the kind of curve behind each potency; many fits are weak.

Assay: qHTS Assay to Find Inhibitors of Chronic Active B-Cell Receptor Signaling
Settings: ABC-DLBCL IkBa-CBG/CBR reporter, luminescence ratio (green luciferase fused to IkBa over red control in TMD8 lymphoma cells), 4 h
How it was run: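 Concentration-response series (up to 46 uM) were applied to TMD8 dual-reporter cells for 4 h at 37C with doxycycline. Green/red ratio, after filter-overlap correction, defined %Activity; red signal alone was normalised to basal cells and zero luminescence.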

[1] = measured here: CBR red luminescence, cell number
[2] = measured here: IkBa-CBG green luminescence

| Compound | AC50 [1] | AC50 [2] |
| --- | --- | --- |
| COc1ccc(C(=O)CSc2nnc(COc3ccccc3)n2Cc2ccco2)cc1 | 35.5 µM [falling, single point] |  |
| CCN(CC)CCn1c(NCc2ccc3c(c2)OCO3)nc2ccccc21 | 14.1 µM [falling, single point] |  |
| COc1ccc(-c2cc3nc(C)c(CCC(=O)NCc4ccco4)c(C)n3n2)c(OC)c1 | 5.8 µM [falling, partial curve] |  |
| COc1ccc2ccc3c(c2c1)N=CC1(O3)N(C)c2ccccc2C1(C)C (stereo not given) | 2.59 µM [falling, full curve, poor fit] | 23.1 µM [falling, partial curve, poor fit] |
| Cc1ccccc1OCCC(=O)OCC(=O)Nc1ccc(N2CCOCC2)cc1 | 7.94 µM [falling, partial curve, poor fit] |  |
| Cc1ccc(NC(=O)CN(Cc2ccco2)Cc2ccccc2O)cc1C | 35.5 µM [falling, partial curve, poor fit] |  |
| O=C(Nc1ccc(F)cc1)C1CCCN1S(=O)(=O)c1ccc(Br)cc1 (stereo not given) | 0.282 µM [rising, full curve, poor fit] |  |
| CC(NC(=O)NC(=O)c1cccc([N+](=O)[O-])c1)C1CC1 (stereo not given) | 35.5 µM [falling, single point] |  |
| Cc1cc(N/N=C/c2ccc(O)cc2O)nc(-c2ccccc2O)n1 | 5.17 µM [falling, full curve, poor fit] |  |
| COc1ccc2[nH]c(C(=O)N/N=C/c3ccccc3OC)cc2c1 | 11.2 µM [falling, partial curve, poor fit] |  |
| O=C1OC(c2ccccc2)=C/C1=C/N1CCCCC1 | 4.47 µM [rising, partial curve, poor fit] |  |
| CCCc1ccc(-c2ccc(F)c(N)c2)nc1 | 11.2 µM [falling, single point] |  |
| Cc1ccc(NC(=O)C2SC(=Nc3ccccc3)C(C(=O)Nc3ccc(Cl)cc3)=C2N)cc1 (stereo not given) | 14.1 µM [falling, single point] |  |
| COc1ccc(Cc2nnc(-c3ccccc3)o2)cc1 | 1.12 µM [rising, partial curve, poor fit] |  |
| COC(=O)c1ccc(C(=O)OC)c(NC(=O)N2c3ccccc3Sc3ccccc32)c1 | 25.9 µM [rising, single point] |  |
| COc1ccccc1-c1cc(C(F)(F)F)nc(S(=O)(=O)CCCC(=O)Nc2cccnc2Cl)n1 | 11.2 µM [falling, partial curve] | 5.62 µM [rising, partial curve, poor fit] |
| CCS(=O)(=O)N1Cc2ccccc2CC1C(=O)Nc1nc2ccccc2[nH]1 (stereo not given) | 5.01 µM [falling, partial curve, poor fit] |  |
| O=C(N/N=C1/CC2C=CCC12)c1ccc(Br)o1 (stereo not given) | 11.6 µM [falling, partial curve, poor fit] |  |
| CCOC(=O)C(=CNc1ccc(-c2ccco2)c(Cl)c1)C(=O)OCC | 20 µM [falling, partial curve, poor fit] |  |
| O=S(=O)(NC1CCCCC1N1CCC(O)CC1)c1ccc(Cl)cc1 (stereo not given) | 10 µM [rising, partial curve, poor fit] |  |
| COC(=O)C(C(C)=O)C1=C/C(=N\S(=O)(=O)c2ccc(C)cc2)c2ccccc2C1=O (stereo not given) | 11.6 µM [falling, partial curve, poor fit] |  |

Part of the list above in another layout.
Compound | AC50 [1] | AC50 [2]
CCN(CC)CCn1c(NCc2ccc3c(c2)OCO3)nc2ccccc21 | 14.1 µM [falling, single point] | 
COc1ccc(-c2cc3nc(C)c(CCC(=O)NCc4ccco4)c(C)n3n2)c(OC)c1 | 5.8 µM [falling, partial curve] | 
COc1ccc2ccc3c(c2c1)N=CC1(O3)N(C)c2ccccc2C1(C)C (stereo not given) | 2.59 µM [falling, full curve, poor fit] | 23.1 µM [falling, partial curve, poor fit]
Cc1ccccc1OCCC(=O)OCC(=O)Nc1ccc(N2CCOCC2)cc1 | 7.94 µM [falling, partial curve, poor fit] | 
Cc1ccc(NC(=O)CN(Cc2ccco2)Cc2ccccc2O)cc1C | 35.5 µM [falling, partial curve, poor fit] | 
O=C(Nc1ccc(F)cc1)C1CCCN1S(=O)(=O)c1ccc(Br)cc1 (stereo not given) | 0.282 µM [rising, full curve, poor fit] | 
CC(NC(=O)NC(=O)c1cccc([N+](=O)[O-])c1)C1CC1 (stereo not given) | 35.5 µM [falling, single point] | 
Cc1cc(N/N=C/c2ccc(O)cc2O)nc(-c2ccccc2O)n1 | 5.17 µM [falling, full curve, poor fit] | 
COc1ccc2[nH]c(C(=O)N/N=C/c3ccccc3OC)cc2c1 | 11.2 µM [falling, partial curve, poor fit] | 
O=C1OC(c2ccccc2)=C/C1=C/N1CCCCC1 | 4.47 µM [rising, partial curve, poor fit] | 
CCCc1ccc(-c2ccc(F)c(N)c2)nc1 | 11.2 µM [falling, single point] | 
Cc1ccc(NC(=O)C2SC(=Nc3ccccc3)C(C(=O)Nc3ccc(Cl)cc3)=C2N)cc1 (stereo not given) | 14.1 µM [falling, single point] | 
COc1ccc(Cc2nnc(-c3ccccc3)o2)cc1 | 1.12 µM [rising, partial curve, poor fit] | 
COC(=O)c1ccc(C(=O)OC)c(NC(=O)N2c3ccccc3Sc3ccccc32)c1 | 25.9 µM [rising, single point] | 
COc1ccccc1-c1cc(C(F)(F)F)nc(S(=O)(=O)CCCC(=O)Nc2cccnc2Cl)n1 | 11.2 µM [falling, partial curve] | 5.62 µM [rising, partial curve, poor fit]
CCS(=O)(=O)N1Cc2ccccc2CC1C(=O)Nc1nc2ccccc2[nH]1 (stereo not given) | 5.01 µM [falling, partial curve, poor fit] | 

Next part

| Compound | AC50 [1] | AC50 [2] |
| --- | --- | --- |
| COc1ccc(OC)c(NC(=O)COC(=O)/C=C/c2c(C)nn(C3CCS(=O)(=O)C3)c2Cl)c1 (stereo not given) | 7.08 µM [rising, partial curve, poor fit] |  |
| COc1ccc(C(C)(C)C)cc1NC(=O)COc1ccc(-c2nnco2)cc1 | 18.4 µM [rising, single point] |  |
| CC(=O)c1cccc(NC(=O)C(Sc2ncnc3ccccc23)c2ccccc2)c1 (stereo not given) | 32.6 µM [falling, single point] |  |
| S=C1NCN(Cc2cccnc2)CN1c1cccc2ccccc12 | 7.08 µM [falling, full curve, poor fit] |  |
| Cc1onc(-c2ccccc2Cl)c1C(=O)Nc1cnn(Cc2ccccc2)c1 | 13 µM [falling, single point] |  |
| CCOc1ccc(NC(=O)CN(C)C(=O)CCN2C(=O)C3CC=CCC3C2=O)cc1OCC (stereo not given) | 3.26 µM [rising, full curve] |  |
| CCCC(Oc1ccc(Br)cc1)c1nc2c3cc(OC)c(OC)cc3nc(=S)n2[nH]1 (stereo not given) | 11.2 µM [rising, partial curve, poor fit] |  |
| O=C(c1ccc(-c2ccccc2)cc1)N1CCN(c2ccccc2F)CC1 | 35.5 µM [falling, single point] |  |
| O=C(O)c1c(F)c(F)c(F)c(F)c1-c1ccc(Cl)cc1 | 14.1 µM [falling, partial curve, poor fit] |  |
| CN(CC(=O)Nc1ccc(F)cc1)C(=O)COC(=O)CNC(=O)c1sc2ccccc2c1Cl | 4.61 µM [falling, full curve] |  |
| CC(=O)c1csc(COc2cc(Cl)cc(Cl)c2)n1 | 0.0891 µM [rising, full curve, poor fit] |  |
| Cc1cc(C(=O)NCc2ccco2)sc1C | 0.0731 µM [falling, full curve, poor fit] |  |
| CCOC(=O)N1CCC(c2cc(=O)n3[nH]c(-c4ccccc4)cc3n2)CC1 | 5.8 µM [falling, full curve] |  |
| Cc1noc(C)c1COc1ccc(C(=O)N2CCN(S(=O)(=O)c3ccccc3)CC2)cc1 | 1.16 µM [falling, partial curve, poor fit] |  |
| O=C(Nc1cccc(C(F)(F)F)c1)C(=O)N1CCCCC1 | 2.82 µM [rising, partial curve] |  |
| COC(=O)c1cc(C#N)c(SCc2ccccc2)nc1C | 7.31 µM [rising, partial curve, poor fit] |  |
| CCC(O)(CC)C(=O)NN(C(=O)CCl)c1ccccc1 | 29.1 µM [falling, single point] |  |
| CCCCc1cc(=O)oc2cc(C)cc(OCC(=O)Nc3cccnc3)c12 | 31.6 µM [rising, single point] |  |
| O=C(OCC(=O)N1CCc2ccccc21)c1c2c(nc3ccccc13)CCCC2 | 7.31 µM [falling, partial curve, poor fit] |  |
| O=C(O)c1cc(Cl)ccc1OS(=O)(=O)c1ccc(Cl)s1 | 29.1 µM [falling, single point] |  |
| O=C(N/N=C/c1cccs1)C1COc2ccccc2O1 (stereo not given) | 6.51 µM [falling, single point] |  |

| Compound | AC50 [1] | AC50 [2] |
| --- | --- | --- |
| NC(=O)C1(N2CCCCC2)CCN(C(=O)CSc2nc(C(F)(F)F)cc(=O)[nH]2)CC1 | 0.092 µM [rising, full curve, poor fit] |  |
| O=c1c(Cl)c(N2CCCCC2)cnn1-c1nc2ccccc2[nH]1 | 1.26 µM [falling, full curve] |  |
| O=[N+]([O-])c1cccc(/C=N/N2CCN(c3ccccn3)CC2)c1 | 9.2 µM [rising, partial curve, poor fit] |  |
| Nc1nc(NCc2ccco2)nn1-c1ccccc1 | 35.5 µM [falling, single point] |  |
| CCCSc1cc(N2CCN(C)CC2)nc(-c2ccc(OC)cc2)n1 | 0.58 µM [falling, full curve, poor fit] |  |
| O=C(c1ccc(Cn2c(=O)[nH]c3ccsc3c2=O)cc1)N1CCN(c2ccccc2)CC1 | 1.12 µM [rising, partial curve, poor fit] |  |
| CC1=NNC(=O)/C1=C\c1cn(-c2ccccc2)nc1-c1ccccc1 | 35.5 µM [falling, single point] |  |
| Cc1nn(-c2ccccc2)c(N2CCCC2)c1/C=N/NC(=O)c1ccccc1O | 20.6 µM [falling, single point] |  |
| COc1ccc(-c2noc(CN(C(=O)c3ccc4c(c3)OCO4)C(C)C)n2)cc1 | 0.398 µM [falling, full curve, poor fit] |  |
| Cc1cccc(N2C(=O)N3[C@H]4c5ccccc5OC[C@@H]4[C@@H](c4ccccc4)[C@@]3(C)C2=O)c1 | 1.46 µM [falling, full curve] |  |
| c1ccc2c(COn3nnc4ccccc43)cccc2c1 | 0.411 µM [rising, full curve, poor fit] |  |
| CCCCNC(=S)NC(=O)c1ccccc1Br | 10.3 µM [rising, partial curve] |  |
| COc1ccc(C(=O)NCCc2nnc3ccc(SCC(=O)NCc4ccccc4)nn23)cc1 | 5.01 µM [falling, full curve, poor fit] |  |
| O=c1cc(CN2CCN(S(=O)(=O)c3ccccc3)CC2)nc2ccc(Cl)cn12 | 20.6 µM [rising, single point] |  |
| CCC(=O)Nc1sc2c(c1C(=O)Nc1ccccc1C)CCC(C)C2 (stereo not given) | 1.78 µM [rising, full curve, poor fit] |  |
| COCCn1c(SCC(=O)Nc2ccccc2F)nc2c([nH]c3ccccc32)c1=O | 6.31 µM [falling, single point] |  |
| CCc1ccc(OCCCC(=O)Nc2nnc(C3CCCO3)s2)cc1 (stereo not given) | 5.01 µM [rising, partial curve, poor fit] |  |
| O=C(NNC(=O)c1ccc(O)cc1O)c1ccc(Cl)cc1 | 23.1 µM [falling, single point] |  |
| Cc1c(NC(=O)c2ccccc2N(C)S(=O)(=O)c2ccccc2)c(=O)n(-c2ccccc2)n1C | 4.61 µM [rising, single point] |  |
| CC(=O)c1ccc(NC(=O)/C(=C\c2cccs2)NC(=O)c2ccco2)cc1 | 35.5 µM [rising, single point] | 14.1 µM [falling, partial curve, poor fit] |
